The source of these data is US12077534B2, “Aza-heterobicyclic inhibitors of MAT2A and methods of use for treating cancer” (Les Laboratoires Servier SAS, priority 2018, dated 2024).

Protein sequences, listed by entry. Tags and fused reporters are not part of them.
UniProt P31153, whole entry: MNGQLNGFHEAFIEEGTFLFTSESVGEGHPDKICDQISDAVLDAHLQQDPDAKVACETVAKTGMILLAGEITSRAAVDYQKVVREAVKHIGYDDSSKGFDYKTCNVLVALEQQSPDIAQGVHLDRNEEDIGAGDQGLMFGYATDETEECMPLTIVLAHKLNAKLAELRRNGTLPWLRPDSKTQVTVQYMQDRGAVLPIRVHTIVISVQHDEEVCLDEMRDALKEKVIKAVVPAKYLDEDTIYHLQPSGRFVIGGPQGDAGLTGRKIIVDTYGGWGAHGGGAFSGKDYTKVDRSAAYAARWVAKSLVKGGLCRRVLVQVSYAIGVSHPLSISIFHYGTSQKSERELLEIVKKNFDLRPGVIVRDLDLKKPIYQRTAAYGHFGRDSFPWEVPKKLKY

In one assay the test system is HCT116 MTAP−/−. Put plainly: Inhibition of cellular proliferation (Cell Titer Glo), HCT116 MTAP-/-. Particulars: read-out: 4 Day Relative Growth Inhibition (MTAP −/−), 4 days. The method, then:
(§1) Test compound impact on cancer cell growth was assessed by treating cancer cells with compound for 4 days and then measuring proliferation using an ATP-based cell proliferation readout (Cell Titer Glo, Promega Corporation).
(§2) In a typical assay an isogenic pair of HCT116 human colon carcinoma cell lines which vary only in MTAP deletion status (HCT116 MTAP+/+ and HCT116 MTAP−/−) were plated in 96-well dishes at appropriate cell density. Following 24 hours, cells were then treated with the candidate MAT2A inhibitor. Prior to addition to cells, the compound was first serially diluted in 100% DMSO, typically as a 3-fold serial dilution starting at 500× top dose with 10 dose points including DMSO only control. […]
(§3) To measure inhibition of cellular proliferation, cells were allowed to equilibrate to room temperature for 30 minutes, and were then treated with 125 μL of Cell Titer Glo reagent. […] Luminescent signal was then measured using a plate-based luminometer Veritas version 1.9.2 using ATP standard curve to confirm assay reproducibility from run to run. This luminescence measure was converted to a proliferation index by subtracting from each data point the ATP luminescence signal measured from a bank (no cells) well and dividing by the ATP luminescence signal measured in 0.2% DMSO control well adjusted for signal in blank well. […]
In general terms: Cellular ATP, detected with luciferase, serves as a proxy for viable cell number.

In the next assay the target is MAT2A homodimer (Homo sapiens, UniProt P31153). Nature of the assay: MAT2A biochemical assay (phosphate release, PiColorLock Gold). Particulars: read-out: Enzyme Inhibition; recombinant MAT2A homodimer, 60 min pre-incubation, 25° C. The method, then:
Mat2A protein was expressed by recombinant baculovirus in SF9 infected cells using the Bac to Bac system cloned into the pFASTBAC1 vector (Invitrogen, Carlsbad, CA). Recombinant MAT2A was isolated from the cell lysate of 150 g of infected cells using HP Ni sepharose column chromatography. Recombinant MAT2A homodimer was eluted with 250 and 500 mM imidazole, and fractions containing MAT2A were identified by sodium dodecyl sulfate polyacrylamide gel electrophoresis and pooled.
For determination of the inhibitory potency of compounds against the MAT2A homodimer, protein was diluted to 4 μg/mL in assay buffer (50 mM Tris, pH 8.0, 50 mM KCl, 15 mM MgCl2, 0.3 mM EDTA, 0.005% [w/v] bovine serum albumin [BSA]). Test compound was prepared in 100% dimethyl sulfoxide (DMSO) at 50× the desired final concentration. A 1 μL volume of compound dilution was added to 40 μL of enzyme dilution and the mixture was allowed to equilibrate for 60 minutes at 25° C. The enzymatic assay was initiated by the addition of 10 μL of substrate mix (500 μM ATP, pH 7.0, 400 μM L-methionine in 1× assay buffer), and the mixture was incubated for a further 60 minutes at 25° C. The reaction was halted and the liberated phosphate released by the enzyme in stoichiometric amounts by the production of S-adenosyl methionine (SAM) was measured using the PiColorLock Gold kit (Innova Biosciences, UK). […]

The next assay relates to HCT116 MTAP+/+. Nature of the assay: Inhibition of cellular proliferation (Cell Titer Glo), HCT116 MTAP+/+. Particulars: read-out: 4 Day Relative Growth Inhibition (MTAP +/+), 4 days. The method, then: as §1, §2, §3
The test system of assay [1] is MAT2A activity (SAM) in HCT116 cells with deleted MTAP gene. Put plainly: Cellular assay of target engagement (SAM) by LC-MS/MS. It counts as cell-based. The note with it: read-out: Cell 72 h SAM Inhibition (MTAP −/−). The method, then:
Measurement of MAT2A activity in cells was made by direct quantitation of the abundance of the product of its enzymatic activity, SAM. Cancer cells were treated with candidate MAT2A inhibitors for a suitable incubation period, and the cells were then lysed using a reagent which quenched any further enzyme activity. Soluble metabolites including SAM were collected and SAM itself was directly measured from the lysate using quantitative LC-MS/MS.
A typical assay was performed using an HCT116 human colon carcinoma cell line which was genetically engineered to delete the MTAP gene (commercially available from Horizon Discovery). This cell line was utilized because it was determined that loss of the MTAP gene predicts sensitivity to MAT2A inhibitors. Cells were plated in 96-well dishes at appropriate cell density. Following 24 hours, cells were then treated with the candidate MAT2A inhibitor. […]
To quantitate SAM levels following compound treatment, cells were gently washed once in ammonium carbonate buffer (75 mM at pH 7.4), placed on dry ice, and lysed with metabolite extraction buffer (80% cold methanol and 20% water (v/v) with acetic acid at 1M final concentration with 200 ng/mL deuterated d3-SAM as internal control). […]

The structures given here were assigned with low confidence; some may be wrong.

On to `Cn1cc2cc(-n3nc4c(C(F)(F)F)cc(OCC(F)F)nc4c(-c4ccc(OC(F)F)cc4)c3=O)ccc2n1`, for which the IC50 is 100 to 1000 nM in the assay with HCT116 MTAP−/−, less than 100 nM at MAT2A homodimer, more than 1000 nM in the assay on HCT116 MTAP+/+ and less than 100 nM in assay [1].
